Values from PubChem BioAssay AID1671195 (Yale University, 2021).
Purpose: 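Genes whose knockdown alters LDL uptake in liver cancer cells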 (primary screen). Cell system: human Huh7 hepatoma cells. Reagent: siRNA pool against human genes, 18 nM. Duration: about 2 to 2.5 days of knockdown, then 8 h LDL uptake. Treatment: DiI-labelled LDL at 30 µg/ml for 8 h, in lipoprotein-deficient serum medium. Read-out: 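Per-cell DiI-LDL intensity by automated imaging; well means scaled to the plate median and given as a robust z-score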. Scale: robust z-score: higher = more LDL uptake after knockdown. Active means: 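Active when two or more replicates show a robust z-score above 2 or below -2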.
This is a random part of about 22,000 reagents. About 1,510 of them (6.9%) were called active. 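Active includes knockdowns raising or lowering LDL uptake; positive z-scores mean more uptake, negative mean less.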 No sequences are given here.

gene symbol	robust z-score, replicate 1	robust z-score, replicate 2	robust z-score, replicate 3	activity call
ALOX12	-0.00947	-0.105	0.128	inactive
ATP1A2	0.425	-0.426	-0.14	inactive
ZMYM5	-0.962	-0.496	-1.24	inactive
LOC143243 (retired record)	-1.4	-2.23	-0.845	inactive
CADM3	-0.363	0.858	1.42	inactive
FAM181A	-0.333	0.118	-0.0685	inactive
SEC14L4	-0.356	0.152	0.0157	inactive
LOC440592 (retired record)	-0.381	-0.0235	-0.148	inactive
LOC441578 (retired record)	0.669	1.47	1.5	inactive
TAS2R8	-0.506	-1.34	-0.249	inactive
FBXO34	1.53	2.16	0.00998	inactive
LIN7A	-1.08	0.113	0.0512	inactive
TLE1	-0.16	-0.842	-0.791	inactive
ADCY10P1	-0.168	-0.348	0.0143	inactive
NIN	-1.42	-1.09	0.0386	inactive
YEATS4	-0.797	-0.785	-0.726	inactive
LY6G6E	-0.483	0.0842	-0.887	inactive
RPL23AP82	0.275	0.343	0.0309	inactive
GAL3ST2	0.208	0.0163	-0.195	inactive
NDUFB10	0.0467	-1.5	-1.85	inactive
TINAG	0.326	1.22	-0.242	inactive
PRR35	-0.602	-0.547	-0.364	inactive
ZP1	1.33	2.12	1.92	active
RASSF1	1.01	1.15	0.819	inactive
OR4E2	1.38	-0.663	-0.488	inactive
CADM2	0.895	1.45	1.32	inactive
TP63	1.17	0.945	0.73	inactive
LOC442102 (retired record)	-1.86	-1.51	-1.66	inactive
LINC01115	-0.0943	-0.164	0.151	inactive

Single entries from the list.
For “robust z-score, replicate 2”, LOC442102 (retired record) shows -1.51
Value of TP63 under “activity call”: inactive
LOC143243 (retired record), robust z-score, replicate 1: -1.4
RASSF1, robust z-score, replicate 2 → 1.15
Entry for TINAG in “activity call”: inactive
For “activity call”, FBXO34 shows inactive

The list goes on.
gene symbol	robust z-score, replicate 1	robust z-score, replicate 2	robust z-score, replicate 3	activity call
PDHB	0.102	0.808	0.492	inactive
SGTA	0.104	0.0066	0.0531	inactive
COMP	0.801	1.52	1.06	inactive
RPL31P35	-0.381	-0.242	-0.796	inactive
C19orf18	4.07	-0.269	-0.0309	inactive
LOC440524 (retired record)	-2.36	-2.48	-2.37	active
KLRG1	-1.17	-0.865	-0.515	inactive
PABPC1	-0.879	-0.871	-1.27	inactive
CYP4F8	-0.611	-0.44	-1.31	inactive
MRPL28	-0.505	-0.862	-0.829	inactive
BTG1	-0.362	0.291	-0.547	inactive
CBLN1	-1.33	-1.1	-1.43	inactive
AASS	0.0337	0.746	0.882	inactive
TMEM106C	-0.617	-1.28	-0.309	inactive
FBXO42	-1.02	-0.467	-0.0775	inactive
PKM	0.134	0.0324	-0.399	inactive
ERLEC1	0.704	-0.178	-1.5	inactive
LOC286080 (retired record)	1.26	1.03	0.79	inactive
NOX5	0.336	1.16	0.993	inactive
TAS2R45	-0.288	-0.153	-0.456	inactive
LOC284931 (retired record)	2.28	2.56	2.33	active
HPRT1	-1.18	-1.13	-0.993	inactive
KLHL10	2.39	1.44	1.76	inactive
CLPTM1L	-0.342	0.224	0.317	inactive
QRSL1	1.6	1.47	1.92	inactive
RAET1E	1.36	0.036	1.4	inactive
LOC393078	-0.773	-1.59	-1.5	inactive
ZBTB12	1.28	0.872	0.853	inactive
RMP24	4.09	4.1	3.68	active
RBM22	-0.873	-0.708	-1.25	inactive
PPM1D	0.63	0.0726	0.114	inactive
SMAD4	-0.744	-1.24	-1.48	inactive
FGL2	0.77	1.02	-0.103	inactive
LINC00326	0.129	0.339	0.217	inactive
RTCB	0.8	1.05	1.45	inactive
NRDC	-0.665	-0.155	-0.245	inactive
CADM4	-0.275	0.151	0.154	inactive
ATXN7L1	0.571	0.465	0.585	inactive
BCL10	0.833	-0.131	1.2	inactive
RAB15	-1.08	-1.02	-0.81	inactive
RGS6	0.351	0.412	0.0227	inactive
FBXW2	1.26	-0.554	0.885	inactive
PLCB2	-1.42	-0.765	-0.413	inactive
TRAPPC5	-0.253	-0.993	-1.04	inactive
OXTR	0.0647	-0.257	0.971	inactive
EOGT	-1.25	-1.39	-1.43	inactive
DHRS4	-0.896	-0.633	-0.872	inactive
FOXO4	2.19	1.92	1.85	active
UBA1	-0.0195	1.79	2.73	inactive
BLM	-0.615	0.0954	0.0147	inactive
LOC442497	-0.726	-1.45	-1.42	inactive
AP3M1	0.556	-0.65	-0.283	inactive
SPRYD3	0.303	0.348	-0.0591	inactive
OVGP1	-0.147	0.00382	0.328	inactive
RASAL1	0.309	0.769	0.879	inactive
CEACAM21	0.226	0.522	0.807	inactive
MAFF	-1.26	-2.51	-0.706	inactive
ATPAF2	0.938	0.824	0.279	inactive
